According to patent US20210369854A1:
Results are given in words; binding and its absence hold for the method and conditions named. Binding can be weak; no strength is given.

Target: human CD5 on cells (MOLT-4 human T lymphoblast cell line; primary human T-cells) (human)
Assay: flow cytometry on primary human T-cells, antibody titration, fluorophore-conjugated (AF488) secondary anti-IgG, MFI

binding: binds
B1: anti-CD5 antibody 5D7 hIgG1 (humanized version of murine antibody 5D7) (antibody, V domains shown)
VH: QVTLKESGPVLVKPTETLTLTCTFSGFSLSTSGMGVGWIRQAPGKGLEWVAHIWWDDDVYYNPSLKSRLTITKDASKDQVSLKLSSVTAADTAVYYCVRRRATGTGFDYWGQGTLVTVSS
VL: NIVMTQSPSSLSASVGDRVTITCQASQDVGTAVAWYQQKPDQSPKLLIYWTSTRHTGVPDRFTGSGSGTDFTLTISSLQPEDIATYFCHQYNSYNTFGSGTKLEIK
